In article PMC4833381:
No constants are given. Whether binding was seen depends on the method and setting. In cells and extracts the contact can be indirect.

Amino acid sequences for entries named in this document (tags omitted). Residues count along the entry.
UniProt P06473, residues 32-906: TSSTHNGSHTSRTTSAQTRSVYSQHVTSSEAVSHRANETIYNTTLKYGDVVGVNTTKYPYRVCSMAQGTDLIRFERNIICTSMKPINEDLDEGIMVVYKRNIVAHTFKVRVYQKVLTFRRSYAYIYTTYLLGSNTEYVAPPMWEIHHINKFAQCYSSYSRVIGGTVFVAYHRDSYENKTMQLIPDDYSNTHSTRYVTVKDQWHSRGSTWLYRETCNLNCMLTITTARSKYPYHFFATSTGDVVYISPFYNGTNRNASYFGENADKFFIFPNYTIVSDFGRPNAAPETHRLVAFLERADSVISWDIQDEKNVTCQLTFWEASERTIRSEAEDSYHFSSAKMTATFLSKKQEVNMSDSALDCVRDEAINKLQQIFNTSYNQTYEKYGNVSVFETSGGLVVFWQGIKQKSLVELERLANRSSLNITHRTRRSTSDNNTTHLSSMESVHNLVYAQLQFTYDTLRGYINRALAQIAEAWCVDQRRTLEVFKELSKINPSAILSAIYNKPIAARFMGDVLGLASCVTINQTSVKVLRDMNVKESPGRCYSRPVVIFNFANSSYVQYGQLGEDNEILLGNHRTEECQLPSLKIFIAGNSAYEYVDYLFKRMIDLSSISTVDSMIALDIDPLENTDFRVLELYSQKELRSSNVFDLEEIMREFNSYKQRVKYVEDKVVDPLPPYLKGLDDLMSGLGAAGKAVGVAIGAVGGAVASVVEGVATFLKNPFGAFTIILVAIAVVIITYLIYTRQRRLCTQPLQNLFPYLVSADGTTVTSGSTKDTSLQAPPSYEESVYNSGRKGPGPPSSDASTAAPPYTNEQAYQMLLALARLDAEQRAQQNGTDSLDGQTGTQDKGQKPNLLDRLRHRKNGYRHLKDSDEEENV

Molecular target: HCMV gB of HCMV BADrUL131 (infected cells and extracellular virions) (human cytomegalovirus, BADrUL131) (UniProt P06473)
Assay: co-IP

B1: HCMV glycoprotein M (gM) of HCMV BADrUL131 (extracellular virions) (protein, UniProt P16733 1-372)
chain: MAPSHVDKVNTRTWSASIVFMVLTFVNVSVHLVLSNFPHLGYPCVYYHVVDFERLNMSAYNVMHLHTPMLFLDSVQLVCYAVFMQLVFLAVTIYYLVCWIKISMRKDKGMSLNQSTRDISYMGDSLTAFLFILSMDTFQLFTLTMSFRLPSMIAFMAAVHFFCLTIFNVSMVTQYRSYKRSLFFFSRLHPKLKGTVQFRTLIVNLVEVALGFNTTVVAMALCYGFGNNFFVRTGHMVLAVFVVYAIISIIYFLLIEAVFFQYVKVQFGYHLGAFFGLCGLIYPIVQYDTFLSNEYRTGISWSFGMLFFIWAMFTTCRAVRYFRGRGSGSVKYQALATASGEEVAVLSHHDSLESRRLREEEDDDDDEDFEDA
  binding: no binding
